Consider 1 sequence from PMC6152987.

For at least one entry, the source does not settle the construct or the ends of the probe. A negative result means that nothing was seen under these conditions.

The test system of this data set is GST-CBF-1Δ(187-214) (Neurospora crassa). The data set is described as follows: EMSA. Particulars: poly(dI-dC); 20 mM HEPES pH 7.9, 1 mM EDTA, 2 mM MgCl2, 10% glycerol, 20 uM ZnCl2, 0.1 ug poly(dI-dC), 3 ug protein in 20 uL, 30 min on ice; 4% native PAGE, 0.5x TBE, 4 C; recombinant protein; protein details: GST (N-terminal, pGEX-4T-1); label: 32P (5' by T4 PNK). (In general: Mobility shift assays separate free from complexed probe on a gel.)

“CGTCCTGATGCCGCTGCAAGACCGATGACGCTGCAAAATTGAGATCTA (double strand) [frq C-box probe (ACF57/ACF58)]”: the binding result is reported as “no binding”.
